Measured values from article PMC3923796.
Results are given in words; binding and its absence hold for the method and conditions named. Binding seen in cells or lysates may run through a third protein. Some results given as binding are weak or reduced against the parent protein; the word gives no strength.

Sequences of proteins named here, by UniProt entry; tags and fusion partners are left off. Residues count along the entry.
UniProt P29317, residues 24-976: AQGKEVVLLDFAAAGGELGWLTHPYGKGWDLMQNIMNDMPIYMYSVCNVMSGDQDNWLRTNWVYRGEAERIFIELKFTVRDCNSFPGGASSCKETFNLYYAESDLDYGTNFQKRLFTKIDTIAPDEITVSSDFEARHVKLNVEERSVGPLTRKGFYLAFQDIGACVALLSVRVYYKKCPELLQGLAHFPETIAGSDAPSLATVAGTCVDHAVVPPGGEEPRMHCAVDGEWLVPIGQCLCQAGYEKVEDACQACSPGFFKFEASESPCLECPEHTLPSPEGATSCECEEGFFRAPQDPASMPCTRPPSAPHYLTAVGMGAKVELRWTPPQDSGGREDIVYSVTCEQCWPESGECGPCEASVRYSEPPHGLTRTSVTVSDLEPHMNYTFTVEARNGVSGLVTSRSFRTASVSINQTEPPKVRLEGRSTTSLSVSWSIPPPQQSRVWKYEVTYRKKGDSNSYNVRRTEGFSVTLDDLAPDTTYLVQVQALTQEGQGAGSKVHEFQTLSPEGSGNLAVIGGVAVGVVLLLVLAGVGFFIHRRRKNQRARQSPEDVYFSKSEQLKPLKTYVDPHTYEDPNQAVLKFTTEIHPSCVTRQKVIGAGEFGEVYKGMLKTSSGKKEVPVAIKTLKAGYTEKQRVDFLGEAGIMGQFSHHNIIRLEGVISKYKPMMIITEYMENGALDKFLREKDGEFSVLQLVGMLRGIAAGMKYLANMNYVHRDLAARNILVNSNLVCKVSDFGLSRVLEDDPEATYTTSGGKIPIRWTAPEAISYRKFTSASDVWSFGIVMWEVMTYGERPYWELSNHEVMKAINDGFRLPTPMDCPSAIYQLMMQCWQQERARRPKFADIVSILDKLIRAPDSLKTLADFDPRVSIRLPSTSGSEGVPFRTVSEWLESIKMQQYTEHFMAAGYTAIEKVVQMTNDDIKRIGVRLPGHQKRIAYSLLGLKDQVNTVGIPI
UniProt P35579: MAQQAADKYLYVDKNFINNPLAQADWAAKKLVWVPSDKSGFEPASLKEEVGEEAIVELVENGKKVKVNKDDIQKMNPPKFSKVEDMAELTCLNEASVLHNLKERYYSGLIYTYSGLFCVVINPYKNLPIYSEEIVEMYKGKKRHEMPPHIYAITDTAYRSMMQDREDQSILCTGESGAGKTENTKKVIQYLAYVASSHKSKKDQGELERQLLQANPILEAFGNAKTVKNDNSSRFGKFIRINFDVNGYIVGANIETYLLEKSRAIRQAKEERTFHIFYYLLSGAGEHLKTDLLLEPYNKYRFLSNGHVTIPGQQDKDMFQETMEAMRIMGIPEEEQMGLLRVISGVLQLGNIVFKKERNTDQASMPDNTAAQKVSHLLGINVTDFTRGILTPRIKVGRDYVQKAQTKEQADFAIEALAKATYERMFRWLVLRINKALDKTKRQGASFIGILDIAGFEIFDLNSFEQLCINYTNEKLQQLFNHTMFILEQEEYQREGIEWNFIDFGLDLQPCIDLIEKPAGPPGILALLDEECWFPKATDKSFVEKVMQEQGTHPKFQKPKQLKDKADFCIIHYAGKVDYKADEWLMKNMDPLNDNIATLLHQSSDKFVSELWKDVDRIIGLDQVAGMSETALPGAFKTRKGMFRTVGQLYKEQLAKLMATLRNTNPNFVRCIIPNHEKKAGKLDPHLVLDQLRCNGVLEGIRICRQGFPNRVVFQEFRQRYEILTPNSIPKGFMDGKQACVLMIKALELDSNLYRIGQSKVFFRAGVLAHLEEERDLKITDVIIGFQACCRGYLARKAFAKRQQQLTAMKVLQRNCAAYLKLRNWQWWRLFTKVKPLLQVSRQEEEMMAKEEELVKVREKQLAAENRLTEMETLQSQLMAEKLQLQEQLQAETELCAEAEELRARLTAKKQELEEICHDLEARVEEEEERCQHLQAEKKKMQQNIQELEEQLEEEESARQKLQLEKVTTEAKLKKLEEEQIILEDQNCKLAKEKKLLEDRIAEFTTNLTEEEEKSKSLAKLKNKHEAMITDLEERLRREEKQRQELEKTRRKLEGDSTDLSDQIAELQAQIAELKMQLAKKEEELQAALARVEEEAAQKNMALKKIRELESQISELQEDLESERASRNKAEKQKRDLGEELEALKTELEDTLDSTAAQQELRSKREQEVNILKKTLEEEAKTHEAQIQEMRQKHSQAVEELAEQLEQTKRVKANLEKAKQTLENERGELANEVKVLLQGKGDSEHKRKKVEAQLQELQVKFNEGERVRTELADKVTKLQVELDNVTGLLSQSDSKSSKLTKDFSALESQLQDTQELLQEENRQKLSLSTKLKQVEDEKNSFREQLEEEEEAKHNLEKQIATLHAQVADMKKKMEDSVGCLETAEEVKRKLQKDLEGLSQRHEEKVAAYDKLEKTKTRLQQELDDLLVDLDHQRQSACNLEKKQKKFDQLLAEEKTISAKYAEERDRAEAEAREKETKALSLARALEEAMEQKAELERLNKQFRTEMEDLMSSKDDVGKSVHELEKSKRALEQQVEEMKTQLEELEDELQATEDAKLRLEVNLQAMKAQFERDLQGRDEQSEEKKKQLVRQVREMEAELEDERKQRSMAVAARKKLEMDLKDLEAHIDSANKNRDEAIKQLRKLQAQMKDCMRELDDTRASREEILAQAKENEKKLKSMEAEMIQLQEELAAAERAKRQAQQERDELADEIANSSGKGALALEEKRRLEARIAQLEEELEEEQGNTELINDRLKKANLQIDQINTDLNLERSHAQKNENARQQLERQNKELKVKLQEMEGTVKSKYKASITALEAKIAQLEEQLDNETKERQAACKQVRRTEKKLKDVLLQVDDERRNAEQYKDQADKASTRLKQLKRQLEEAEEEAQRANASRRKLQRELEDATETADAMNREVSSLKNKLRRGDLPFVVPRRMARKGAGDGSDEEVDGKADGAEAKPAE
UniProt P07355: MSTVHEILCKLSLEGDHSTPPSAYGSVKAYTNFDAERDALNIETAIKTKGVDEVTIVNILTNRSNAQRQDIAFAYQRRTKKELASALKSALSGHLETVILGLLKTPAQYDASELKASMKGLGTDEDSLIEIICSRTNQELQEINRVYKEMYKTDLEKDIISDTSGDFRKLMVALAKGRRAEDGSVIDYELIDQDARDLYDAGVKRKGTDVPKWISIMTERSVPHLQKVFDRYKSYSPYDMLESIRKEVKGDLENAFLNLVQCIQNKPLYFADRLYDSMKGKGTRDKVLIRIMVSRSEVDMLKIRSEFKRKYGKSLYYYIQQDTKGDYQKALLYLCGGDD
UniProt Q05397: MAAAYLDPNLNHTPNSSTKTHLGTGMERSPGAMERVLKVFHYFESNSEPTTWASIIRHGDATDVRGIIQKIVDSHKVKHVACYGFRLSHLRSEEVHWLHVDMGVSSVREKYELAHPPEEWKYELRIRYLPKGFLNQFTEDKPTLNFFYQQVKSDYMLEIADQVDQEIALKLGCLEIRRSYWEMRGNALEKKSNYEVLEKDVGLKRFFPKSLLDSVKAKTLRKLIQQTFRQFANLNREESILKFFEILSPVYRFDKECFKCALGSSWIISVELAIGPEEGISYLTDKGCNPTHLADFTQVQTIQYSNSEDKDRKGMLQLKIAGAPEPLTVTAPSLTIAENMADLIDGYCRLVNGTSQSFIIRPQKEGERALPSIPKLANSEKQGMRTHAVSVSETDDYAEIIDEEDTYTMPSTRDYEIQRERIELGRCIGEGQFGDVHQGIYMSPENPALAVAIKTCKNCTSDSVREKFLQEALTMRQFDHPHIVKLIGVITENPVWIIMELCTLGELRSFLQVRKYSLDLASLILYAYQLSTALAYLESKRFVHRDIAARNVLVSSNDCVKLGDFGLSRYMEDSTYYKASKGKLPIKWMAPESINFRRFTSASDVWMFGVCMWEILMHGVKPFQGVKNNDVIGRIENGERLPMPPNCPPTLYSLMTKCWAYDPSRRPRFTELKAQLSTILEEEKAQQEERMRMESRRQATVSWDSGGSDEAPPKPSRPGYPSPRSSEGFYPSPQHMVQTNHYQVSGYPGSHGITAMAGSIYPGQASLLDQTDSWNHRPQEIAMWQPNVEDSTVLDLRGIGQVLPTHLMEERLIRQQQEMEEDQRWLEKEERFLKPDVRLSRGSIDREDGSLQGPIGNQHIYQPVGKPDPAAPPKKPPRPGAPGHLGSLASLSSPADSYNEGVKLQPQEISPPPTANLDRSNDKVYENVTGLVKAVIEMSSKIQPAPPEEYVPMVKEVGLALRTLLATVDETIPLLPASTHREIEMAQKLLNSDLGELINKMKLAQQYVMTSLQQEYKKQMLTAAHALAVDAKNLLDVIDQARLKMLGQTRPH
UniProt O43707: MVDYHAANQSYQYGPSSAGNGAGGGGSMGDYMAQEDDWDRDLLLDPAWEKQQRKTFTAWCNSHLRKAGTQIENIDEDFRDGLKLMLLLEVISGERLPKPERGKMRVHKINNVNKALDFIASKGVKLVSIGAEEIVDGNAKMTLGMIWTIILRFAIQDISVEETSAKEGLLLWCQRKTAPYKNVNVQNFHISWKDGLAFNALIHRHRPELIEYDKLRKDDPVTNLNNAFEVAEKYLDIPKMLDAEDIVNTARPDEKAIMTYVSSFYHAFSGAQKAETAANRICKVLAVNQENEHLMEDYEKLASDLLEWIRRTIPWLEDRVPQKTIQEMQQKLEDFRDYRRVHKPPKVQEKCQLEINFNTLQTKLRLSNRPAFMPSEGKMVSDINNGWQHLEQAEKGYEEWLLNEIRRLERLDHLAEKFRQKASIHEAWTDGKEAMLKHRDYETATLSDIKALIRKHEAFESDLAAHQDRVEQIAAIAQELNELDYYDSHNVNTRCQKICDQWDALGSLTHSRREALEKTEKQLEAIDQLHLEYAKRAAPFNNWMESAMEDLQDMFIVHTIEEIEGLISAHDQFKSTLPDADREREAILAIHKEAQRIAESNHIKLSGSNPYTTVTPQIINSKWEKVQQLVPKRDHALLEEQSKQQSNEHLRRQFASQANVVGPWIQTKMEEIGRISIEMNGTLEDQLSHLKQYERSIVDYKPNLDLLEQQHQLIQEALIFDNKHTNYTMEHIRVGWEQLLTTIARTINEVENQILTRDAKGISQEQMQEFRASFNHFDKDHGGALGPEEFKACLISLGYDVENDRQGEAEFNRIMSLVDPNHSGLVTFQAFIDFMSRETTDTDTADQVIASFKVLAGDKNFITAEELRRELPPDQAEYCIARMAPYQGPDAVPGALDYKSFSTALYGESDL
UniProt P08670: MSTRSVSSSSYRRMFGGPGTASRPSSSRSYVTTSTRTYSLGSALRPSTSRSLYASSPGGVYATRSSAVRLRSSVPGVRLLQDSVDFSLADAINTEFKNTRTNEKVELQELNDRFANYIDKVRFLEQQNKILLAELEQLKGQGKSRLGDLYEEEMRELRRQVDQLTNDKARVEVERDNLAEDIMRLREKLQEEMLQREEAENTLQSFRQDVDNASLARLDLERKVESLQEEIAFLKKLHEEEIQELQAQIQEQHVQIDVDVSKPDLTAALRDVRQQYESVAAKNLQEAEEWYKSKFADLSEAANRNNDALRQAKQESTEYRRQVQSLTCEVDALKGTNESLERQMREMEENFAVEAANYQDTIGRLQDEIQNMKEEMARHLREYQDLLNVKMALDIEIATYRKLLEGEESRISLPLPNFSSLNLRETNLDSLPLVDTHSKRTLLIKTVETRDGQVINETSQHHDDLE

What was measured:
[1] = target: T1, calcium and integrin binding protein-1 (CIB1) (human (endogenous in HMVEC-d)) (UniProt Q99828); test: co-IP; 200 µg lysate of serum-starved HMVEC-d cells (25 mM Tris-HCl pH 7.5, 150 mM NaCl, 1% NP40, 2 mM EDTA, 10% glycerol), overnight at 4°C with anti-CIB1 or anti-EphA2 antibody, protein G-sepharose, Western blot; cells mock or KSHV infected (5, 10, 30 min), infected with heparin-treated KSHV, or CIB1-shRNA transduced
T1 sequence: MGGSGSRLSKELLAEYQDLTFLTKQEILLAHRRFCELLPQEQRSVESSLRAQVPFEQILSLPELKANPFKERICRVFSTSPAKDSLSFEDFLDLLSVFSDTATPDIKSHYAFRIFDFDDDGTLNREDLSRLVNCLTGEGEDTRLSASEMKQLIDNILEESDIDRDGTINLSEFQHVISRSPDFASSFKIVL

[2] = target: EphrinA2 (EphA2) (human (endogenous in HMVEC-d)) (UniProt P29317); test: as above
[3] = target: T1, calcium and integrin binding protein-1 (CIB1) (human (endogenous in HMVEC-d)); test: co-IP; data not shown; after KSHV infection

| Substance | binding [1] | binding [2] | binding [3] |
| --- | --- | --- | --- |
| myosin IIA (from UniProt P35579 1-1960) | binds | binds | – |
| annexin A2 (from UniProt P07355 1-339) | binds | binds | – |
| EphrinA2 (EphA2) (from UniProt P29317 24-976) (receptor) | binds | – | – |
| focal adhesion kinase (FAK) (from UniProt Q05397 1-1052) (enzyme) | – | – | binds |
| alpha-actinin 4 (from UniProt O43707 1-911) | binds | – | – |
| vimentin (from UniProt P08670 1-466) | binds | binds | – |
